From PMC5643561, “Zdhhc13-dependent Drp1 S-palmitoylation impacts brain bioenergetics, anxiety, coordination and motor skills” (Scientific Reports, 2017) come the findings set out here.

Amino acid sequences for entries named in this document (tags omitted).
UniProt Q8K1M6: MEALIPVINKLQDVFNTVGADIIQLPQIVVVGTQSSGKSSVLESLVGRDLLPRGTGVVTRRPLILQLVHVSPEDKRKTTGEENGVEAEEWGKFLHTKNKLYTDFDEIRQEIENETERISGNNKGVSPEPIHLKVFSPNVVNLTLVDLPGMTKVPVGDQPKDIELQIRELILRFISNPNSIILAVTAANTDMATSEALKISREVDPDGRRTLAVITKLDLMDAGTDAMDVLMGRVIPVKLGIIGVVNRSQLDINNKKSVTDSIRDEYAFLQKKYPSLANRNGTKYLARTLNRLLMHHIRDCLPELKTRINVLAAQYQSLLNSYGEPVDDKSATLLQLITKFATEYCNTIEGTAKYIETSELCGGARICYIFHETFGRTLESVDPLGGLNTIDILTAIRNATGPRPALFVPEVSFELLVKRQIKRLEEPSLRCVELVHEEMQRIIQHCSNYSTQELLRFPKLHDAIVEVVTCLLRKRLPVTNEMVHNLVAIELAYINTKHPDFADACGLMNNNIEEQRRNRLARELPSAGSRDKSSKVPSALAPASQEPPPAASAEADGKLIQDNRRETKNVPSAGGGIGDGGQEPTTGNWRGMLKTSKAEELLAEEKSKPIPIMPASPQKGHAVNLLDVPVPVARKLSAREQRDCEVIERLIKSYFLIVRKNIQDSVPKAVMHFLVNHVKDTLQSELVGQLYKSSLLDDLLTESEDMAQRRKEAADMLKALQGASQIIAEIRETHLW

This assay addresses T1, Zdhhc13, endogenous, WT mouse brain (mouse (endogenous in brain)) (UniProt Q9CWU2).
T1 sequence: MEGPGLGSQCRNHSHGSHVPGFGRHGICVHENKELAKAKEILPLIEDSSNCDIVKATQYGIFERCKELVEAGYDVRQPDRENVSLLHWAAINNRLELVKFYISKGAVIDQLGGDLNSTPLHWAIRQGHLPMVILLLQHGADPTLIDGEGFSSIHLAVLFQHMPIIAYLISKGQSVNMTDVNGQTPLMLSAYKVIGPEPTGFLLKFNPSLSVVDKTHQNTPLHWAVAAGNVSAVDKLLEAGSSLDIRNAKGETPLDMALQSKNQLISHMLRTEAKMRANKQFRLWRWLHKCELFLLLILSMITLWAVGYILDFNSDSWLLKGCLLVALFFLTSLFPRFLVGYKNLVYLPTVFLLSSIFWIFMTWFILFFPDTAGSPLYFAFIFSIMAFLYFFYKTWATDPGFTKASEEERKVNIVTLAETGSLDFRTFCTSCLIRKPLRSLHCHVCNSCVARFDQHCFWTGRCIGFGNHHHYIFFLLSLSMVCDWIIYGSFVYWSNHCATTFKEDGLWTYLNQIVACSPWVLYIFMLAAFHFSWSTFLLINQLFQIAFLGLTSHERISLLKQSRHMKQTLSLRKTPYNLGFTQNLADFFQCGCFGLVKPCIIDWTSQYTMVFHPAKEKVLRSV
Nature of the assay: co-IP; 1 mg whole brain lysate of WT and HOM mice; anti-Zdhhc13 antibody (#4733) or anti-Drp1 antibody overnight at 4 °C; Dynabeads; PBS washes; blot with anti-Drp1.

No constants are given. Whether binding was seen depends on the method and setting. In cells and extracts the contact can be indirect. Some entries that bind do so weakly or less than the wild type.

Turning to “Drp1, endogenous, mouse brain (from UniProt Q8K1M6 1-736)”, the binding result was “binds”.
